Taken from: PubChem BioAssay AID686938 (Drosophila RNAi Screening Center, 2013)

Purpose: 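Looking for CRAC channel components and the factors controlling them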 (primary screen)
Cells: Drosophila S2R+ cells
Knock-down reagent: long dsRNA against Drosophila genes, about 0.25 µg dsRNA per well, roughly 10,000 cells
Time to read-out: 5 days of knock-down before the calcium assay
Treatment: thapsigargin (SERCA pump blocker) to empty calcium stores; entry signal taken 4 min after adding it
Read-out: 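Duplicate raw fluo-4 intensities per well from a plate reader, at rest and four minutes after thapsigargin emptied calcium stores; entry-to-rest ratio filled for only some wells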
Scale: calcium entry signal: higher = stronger calcium signal after store depletion; resting calcium signal: higher = higher resting calcium signal
Units: calcium entry signal in fluorescence units; resting calcium signal in fluorescence units
Call rule: 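Hit if the duplicate-averaged plate z-score for entry over resting signal is under −3; wells with weak total dye signal (Fmax z < −2) or more than 5 off-targets removed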
Meaning of the calls: active = strongly reduced calcium entry; inactive = no strong reduction
The screen tested about 23,000 reagents; below is a random part of those with a known target gene and a result. Of all reagents, 75 (0.33%) got an active call. 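Raw plate signals without normalisation; calls rest on plate z-scores that were not deposited; ratio present for only 364 wells.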 Reagent sequences are not shown. Not given: the dose of the treatment.

Against thetaTry [DRSC07705], the values are calcium entry signal, replicate 1 = 2.77e7; calcium entry signal, replicate 2 = 4.63e7; resting calcium signal, replicate 1 = 1.37e7; resting calcium signal, replicate 2 = 1.82e7; inactive. Against Cyp28c1 [DRSC20236], the entry reads calcium entry signal, replicate 1 = 3.14e7; calcium entry signal, replicate 2 = 3.58e7; resting calcium signal, replicate 1 = 1.54e7; resting calcium signal, replicate 2 = 1.83e7; inactive. After knock-down of CG16879 (retired record) [DRSC01918] the results were calcium entry signal, replicate 1 = 4.71e7; calcium entry signal, replicate 2 = 4.30e7; resting calcium signal, replicate 1 = 1.92e7; resting calcium signal, replicate 2 = 2.05e7; inactive. With knock-down of CG16879 (retired record) [DRSC22849], the record shows calcium entry signal, replicate 1 = 2.23e7; calcium entry signal, replicate 2 = 3.91e7; resting calcium signal, replicate 1 = 1.20e7; resting calcium signal, replicate 2 = 1.71e7; inactive. CG1677 [DRSC18116] showed calcium entry signal, replicate 1 = 3.10e7; calcium entry signal, replicate 2 = 3.17e7; resting calcium signal, replicate 1 = 1.48e7; resting calcium signal, replicate 2 = 1.39e7; inactive. CCT6 [DRSC20095] scored calcium entry signal, replicate 1 = 2.70e7; calcium entry signal, replicate 2 = 2.44e7; resting calcium signal, replicate 1 = 1.53e7; resting calcium signal, replicate 2 = 1.41e7; inactive.

Ugt304A1 [DRSC15127] showed calcium entry signal, replicate 1 = 2.30e7; calcium entry signal, replicate 2 = 2.38e7; resting calcium signal, replicate 1 = 1.23e7; resting calcium signal, replicate 2 = 1.28e7; inactive. Depletion of CG9992 [DRSC20226] gave: calcium entry signal, replicate 1 = 4.14e7; calcium entry signal, replicate 2 = 4.21e7; resting calcium signal, replicate 1 = 1.82e7; resting calcium signal, replicate 2 = 2.13e7; inactive. With knock-down of CG9992 [DRSC21643], the screen gave calcium entry signal, replicate 1 = 3.06e7; calcium entry signal, replicate 2 = 3.54e7; resting calcium signal, replicate 1 = 1.76e7; resting calcium signal, replicate 2 = 1.73e7; inactive. With knock-down of Cpr78E [DRSC11807], the screen gave calcium entry signal, replicate 1 = 2.99e7; calcium entry signal, replicate 2 = 4.40e7; resting calcium signal, replicate 1 = 1.39e7; resting calcium signal, replicate 2 = 1.88e7; inactive. Depletion of CG31741 [DRSC02887] came out at: calcium entry signal, replicate 1 = 4.82e7; calcium entry signal, replicate 2 = 4.08e7; resting calcium signal, replicate 1 = 2.11e7; resting calcium signal, replicate 2 = 1.89e7; inactive. For CG33272 [DRSC09116], the values are calcium entry signal, replicate 1 = 3.89e7; calcium entry signal, replicate 2 = 3.20e7; resting calcium signal, replicate 1 = 2.02e7; resting calcium signal, replicate 2 = 1.72e7; inactive.

Look-ups from the entries so far.
CCT6 [DRSC20095], calcium entry signal, replicate 2: 2.44e7
thetaTry [DRSC07705], calcium entry signal, replicate 2 = 4.63e7
